Measured values from publication doi:10.1101/2021.08.12.456111.

Target: FimV domain of S. putrefaciens HubP (S. putrefaciens)
Test: SEC

B1: MBP-GGDEF_(SoPdeB), GGDEF domain of S. oneidensis PdeB, wild type (domain or fragment, UniProt Q8EJM6 454-587)
chain: RSLAVCYLDLEQFKLINDSCGHTAGDRMLAMVARAIQSCLGPQELLARIGGDEFGLVICDRTALAVAQLLKQIIAQVSLQVLHDKNCNYKVGLSIGVAFGRAPYINAQELLKDADIACIAAKAKGTNQIHIYDD
binding: binds

No constants are given. Whether binding was seen depends on the method and setting. Binding can be weak; no strength is given. Tags and fused reporters may be left off the sequences shown.
